The whole screen tested about 340,000 compounds, of which about 6,200 (1.8%) were called active. Inconclusive means that the source gave no clear call. Such entries were picked first, then a sample of the others. Calls follow the shape of the dose curve; as a rule, active = well fitted activation curve with a large enough effect; inconclusive = small, poorly fitted or top-dose-only effect; inactive = no such curve, though single readings can be large or run the other way. Potencies beside an inconclusive call are fits to weak or partial responses and may not hold up.
Assay: A quantitative high throughput screen for small molecules that induce DNA re-replication in SW480 colon adenocarcinoma cells. Also: nearly all actives have a fitted effect of over 55% in size. As to re-replication activation: % of control where 0% means no effect.
Details: Hoechst DNA content imaging, 48 h; re-replication activation: at 46.1 µM (top of the series) unless noted
Method in brief: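 First, 250 cells per well were seeded. Next, compound or vehicle (23 nL) was pinned in, plates sat 48 hr at 37 C. Finally Hoechst was added for 40 min before fluorescence scanning.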
Potency is read from the fitted curve at half-maximal effect.

SMILES | Potency | re-replication activation
COc1ccc([C@@H](OC)[C@@]2(Cc3ccc(O)cc3)N=C(N)N(C)C2=O)cc1 | inactive | 
O=C(NCCN1C(=O)S/C(=C\c2cccnc2)C1=O)c1cc(S(=O)(=O)N2CCOCC2)ccc1F | active: 2.06 µM | 
COc1cc(NC(=O)c2ccc(F)cc2)ccc1NC(=O)c1cc2ccccc2o1 | inconclusive: 1.46 µM [activator, partial curve, poor fit] | 
Cc1ccnc(NS(=O)(=O)c2ccc(Cl)nc2)c1 | inconclusive: 29.1 µM [activator, single point] | 
COc1ccc(N2CCN(Cc3nc(N)nc(Nc4ccc(C)c(Cl)c4)n3)CC2)cc1 | inconclusive: 16.4 µM [activator, single point] | 
COC(=O)c1sc(C(=O)OC)c(C(=O)OC)c1C(=O)OC | inactive | 
N#Cc1cnn2c(N)c(-c3ccc(Cl)cc3)cnc12 | inconclusive: 11.6 µM [activator, partial curve, poor fit] | 
COc1cc(/C=N/N=C(N)N)ccc1OCc1ccccc1Cl | inconclusive: 29.1 µM [activator, single point] | 
CCCCn1nc(C(=O)Nc2cc(C(F)(F)F)ccc2N2CCOCC2)ccc1=O | inactive | 
COC(=O)c1ccc(-c2ccc(F)cc2)nc1C | active: 29.1 µM | 
COc1ccc(NC(=S)Nc2ccccc2OC)c(OC)c1 | inactive | 
Cc1ccc(Cl)c(OCC(=O)Nc2ccccc2N2CCCCC2)c1 | active: 3.66 µM | 
CCN1CCc2c(sc(NC(=O)c3ccc(S(=O)(=O)N(C)c4ccccc4)cc3)c2C(=O)NC)C1 | inconclusive: 23.1 µM [activator, single point] | 
CC(=O)c1ccc(NS(=O)(=O)c2ccc3c(c2)N(C)CCO3)cc1 | inconclusive: 23.1 µM [activator, single point] | 
CC(C)(C)c1ccc(/C=C/C(=O)c2ccc(NC3=NCCCS3)cc2)cc1 | inconclusive: 29.1 µM [activator, single point] | 
CCCCc1ccc(S(=O)(=O)Nc2cc(C)on2)cc1 | inconclusive: 11.6 µM [activator, partial curve, poor fit] | 
Cc1cccc(NC(=O)C(C)C(=O)c2ccccc2)c1 (stereo not given) | inactive | 
C/C(=N/NC(=O)c1ccco1)c1ccc(NC(=O)c2ccc(F)cc2)cc1 | inconclusive: 29.1 µM [activator, single point] | 
COc1ccc(C(=O)Nc2ccc(C(=O)Nc3nccs3)cc2)cc1[N+](=O)[O-] | active: 10.3 µM | 
Cc1cc(Nc2nc3ccccc3[nH]c2=O)n(-c2ccccc2)n1 | inconclusive: 18.4 µM [activator, single point] | 
CC(C)(C)OC(=O)N(CCc1ccccc1)Cc1cccc(OCc2cccc(NC(=O)c3ccccc3)c2)c1 | inconclusive: 29.1 µM [activator, partial curve, poor fit] | 
O=C(Nc1ccn(Cc2c(F)c(F)cc(F)c2F)n1)c1ccc(COc2ccc(Cl)cc2Cl)o1 | inactive | 
Cc1ccccc1-c1cc2c(nn1)-c1ccccc1C2=O | inconclusive: 29.1 µM [activator, single point] | 
O=c1[nH]c(SCCOc2ccccc2F)nc2ccccc12 | inactive | 

4 of these compounds, set out differently:
COc1ccc([C@@H](OC)[C@@]2(Cc3ccc(O)cc3)N=C(N)N(C)C2=O)cc1
  Potency: inactive
Cc1ccnc(NS(=O)(=O)c2ccc(Cl)nc2)c1
  Potency: inconclusive: 29.1 µM [activator, single point]
CC(C)(C)c1ccc(/C=C/C(=O)c2ccc(NC3=NCCCS3)cc2)cc1
  Potency: inconclusive: 29.1 µM [activator, single point]
CC(C)(C)OC(=O)N(CCc1ccccc1)Cc1cccc(OCc2cccc(NC(=O)c3ccccc3)c2)c1
  Potency: inconclusive: 29.1 µM [activator, partial curve, poor fit]

Continued:

SMILES | Potency | re-replication activation
O=C(O)CCCC(=O)Nc1ccc(OCc2nc3ccccc3s2)cc1 | inactive | 
CCC(=O)NC(c1ccco1)c1cc(Cl)c2ccccc2c1O (stereo not given) | inconclusive: 0.0206 µM [activator, full curve, poor fit] | 
CN1C(=O)/C(=C/c2cc(C(C)(C)C)c(O)c(C(C)(C)C)c2)NC1=S | inactive | 
O=C(Cn1cnc2c(OCc3ccccc3)ncnc21)NCc1ccc2[nH]ccc2c1 | inconclusive: 0.0058 µM [activator, full curve, poor fit] | 
Cc1ccc(NC(=S)NNC(=O)Cn2nc([N+](=O)[O-])cc2C)cc1 | inactive | 
N#Cc1nc(-c2ccc(OCc3ccccc3)cc2)oc1NCCCN1CCOCC1 | inconclusive: 20.6 µM [activator, single point] | 
COc1ccc2oc(C(=O)OCC(=O)N(Cc3ccccc3)C(C)(C)C)c(C)c2c1 | inconclusive: 23.1 µM [activator, single point] | 
O=C(Cc1ccc(Br)cc1)Nc1ccc(S(=O)(=O)Nc2ncccn2)cc1 | inactive | 
COc1ccccc1CNC(=O)COC(=O)CSc1ccc(Cl)cc1 | inconclusive: 0.0046 µM [activator, full curve, poor fit] | 
O=C1c2cc([N+](=O)[O-])cc3cc([N+](=O)[O-])cc(c23)C(=O)N1c1ccccn1 | active: 20.6 µM | 
Cc1cccc(-n2c(SCC(=O)NCc3ccco3)nc3ccccc3c2=O)c1 | inconclusive: 20.6 µM [activator, single point] | 
COc1ccccc1-c1oc2ccccc2c1C#CC1(N)CCCCC1 | inconclusive: 18.4 µM [activator, partial curve, poor fit] | 
O=C1CN(C(=O)COC(=O)CNS(=O)(=O)/C=C/c2ccccc2)c2ccccc2N1 | inactive | 
Clc1cnc(N/N=C/c2ccncc2)c(Cl)c1 | inconclusive: 29.1 µM [activator, single point] | 
Cn1cnc([N+](=O)[O-])c1Oc1cccc2ccccc12 | inconclusive: 18.4 µM [activator, single point] | 
O=C(Nc1ccc(S(=O)(=O)N2CCCC2)cc1)c1ccc(CN2CCc3ccccc3C2)cc1 | inactive | 
COc1ccc(CNc2nc(NCc3ccc(OC)cc3)c3[nH]cnc3n2)cc1 | inactive | 
Clc1ccc(C2CC(c3ccco3)n3ncnc3N2)cc1Cl (stereo not given) |  | inactive: 0.73% [at 9.22 µM]
CCC(c1nnnn1Cc1ccc2c(c1)OCO2)N1CCN(c2ccc(OC)cc2)CC1 (stereo not given) | inconclusive: 6.31 µM [activator, single point] | 
CC(C)c1ccc(S(=O)(=O)c2ccc(NN)cc2)cc1 | inconclusive: 8.2 µM [activator, partial curve] | 
C(=C\n1nnc2ccccc21)/c1ccc[nH]1 | inconclusive: 8.2 µM [activator, partial curve, poor fit] | 
O=C(NCc1ccccc1)C(=O)Nc1nc(C23CC4CC(CC(C4)C2)C3)cs1 | inconclusive: 29.1 µM [activator, single point] | 
O=C(COC(=O)c1cc[n+]([O-])cc1)Nc1ccc(SC(F)F)cc1 | inconclusive: 16.4 µM [activator, partial curve, poor fit] | 
CN1C[C@@H]2[C@@H]3C(=O)N(Cc4ccccc4)C(=O)[C@@H]3[C@](C)(C1=O)N2C(=O)c1ccc(C(C)(C)C)cc1 | inactive | 

SMILES | Potency | re-replication activation
CCCOC(=O)c1ccc(NC(=O)c2cccc(S(=O)(=O)N3CCN(C(C)=O)CC3)c2)cc1 | inactive | 
Cc1ccc(OCCCN2CCCC2)c(C)c1 | inactive | 
COCc1cc(C)nc(SCc2ccc(Br)cc2)c1C#N | inconclusive: 0.461 µM [activator, full curve, poor fit] | 
CCCCn1c(=N)n(CC(O)COc2cccc(C)c2)c2ccccc21 (stereo not given) | inconclusive: 20.6 µM [activator, single point] | 
C/C(=N\NC(=O)c1nnn(-c2nonc2N)c1CN1CCc2ccccc21)c1ccccc1O | inconclusive: 3.66 µM [activator, full curve] | 
O=C1CC(SC2=NCCS2)C(=O)N1c1cccc(Cl)c1Cl (stereo not given) | inconclusive: 1.64 µM [activator, full curve] | 
Cc1c(Cl)c([N+](=O)[O-])nn1CCCC(=O)Nc1c(C)n(C)n(-c2ccccc2)c1=O | inactive | 
C[C@H](CO)N1C[C@H](C)[C@@H](CN(C)C(=O)NC2CCCCC2)Oc2ccc(NC(=O)CCC(F)(F)F)cc2C1=O | inconclusive: 32.6 µM [activator, single point] | 
O=C(N/N=C(/CC(=O)c1cccs1)C(F)(F)F)c1ccc(O)cc1 | inactive | 
Cc1cccc(C)c1NC(=O)c1cccc2c1C(=O)N(C1CCCCC1)C2 | inconclusive: 15.8 µM [activator, single point] | 
O=C(/C=C/c1cccs1)c1ccco1 |  | inactive: -6.75% [at 1.84 µM]
CC(=O)c1sc2nc(-c3cccs3)ccc2c1N | inconclusive: 16.4 µM [activator, partial curve, poor fit] | 
Cc1cc(OCC(=O)NCCc2cccc(F)c2)c2c(C)cc(=O)oc2c1 | inconclusive: 1.3 µM [activator, full curve, poor fit] | 
CC1CCc2nc3sc4c(c3c(N)c2C1)CCCC4 (stereo not given) | inactive | 
CC(=O)c1c(C)[nH]c(C(=O)Nc2ccc(C)c(S(=O)(=O)Nc3ccc(C)cc3C)c2)c1C | active: 16.4 µM | 
Cc1ccc(-c2nc(C)sc2CC(=O)OCC(=O)Nc2cccc([N+](=O)[O-])c2)cc1 | inactive | 
COCCNC(=O)C(c1ccc(C)cc1)N(Cc1ccccc1)C(=O)CCC(=O)Nc1ccccn1 (stereo not given) | inactive | 
COc1cccc(-c2nc(C(=O)NCCCN3CCOCC3)cc3c2[nH]c2ccccc23)c1 | inconclusive: 1.3 µM [activator, full curve, poor fit] | 
C#CC[N+](C)(C)CCCCCCCCCCCC | active: 11.6 µM | 
CCOc1ccccc1-c1cc(C(=O)N/N=C/c2ccc(O)c(OC)c2)c2ccccc2n1 | inconclusive: 16.4 µM [activator, single point] | 
CCOc1ccc(NC(=O)CCCn2nc(C)c3c(C)n(-c4ccccc4)nc3c2=O)cc1 | inconclusive: 6.51 µM [activator, single point] | 
CC(C)CNC(=O)c1coc(=O)c(Br)c1 | inconclusive: 23.1 µM [activator, single point] | 
